No constants are given. Whether binding was seen depends on the method and setting. Binding seen in cells or lysates may run through a third protein. Here binding means that the protein was enriched with, or labelled near, the bait; the list need not be complete.
Target: Tripartite motif-containing 37 (TRIM37) (human (RCC cell lines; the cell line of the Co-IP is not stated)) (UniProt O94972)
Assay: affinity purification with mass spectrometry; Co-IP from fresh cell protein with antibody on protein A/G magnetic beads (antibody and beads at 4 °C overnight), IP buffer washes, eluted proteins analysed by mass spectrometry

By UniProt entry, the sequences of proteins in these tests, tags left out.
UniProt O94972: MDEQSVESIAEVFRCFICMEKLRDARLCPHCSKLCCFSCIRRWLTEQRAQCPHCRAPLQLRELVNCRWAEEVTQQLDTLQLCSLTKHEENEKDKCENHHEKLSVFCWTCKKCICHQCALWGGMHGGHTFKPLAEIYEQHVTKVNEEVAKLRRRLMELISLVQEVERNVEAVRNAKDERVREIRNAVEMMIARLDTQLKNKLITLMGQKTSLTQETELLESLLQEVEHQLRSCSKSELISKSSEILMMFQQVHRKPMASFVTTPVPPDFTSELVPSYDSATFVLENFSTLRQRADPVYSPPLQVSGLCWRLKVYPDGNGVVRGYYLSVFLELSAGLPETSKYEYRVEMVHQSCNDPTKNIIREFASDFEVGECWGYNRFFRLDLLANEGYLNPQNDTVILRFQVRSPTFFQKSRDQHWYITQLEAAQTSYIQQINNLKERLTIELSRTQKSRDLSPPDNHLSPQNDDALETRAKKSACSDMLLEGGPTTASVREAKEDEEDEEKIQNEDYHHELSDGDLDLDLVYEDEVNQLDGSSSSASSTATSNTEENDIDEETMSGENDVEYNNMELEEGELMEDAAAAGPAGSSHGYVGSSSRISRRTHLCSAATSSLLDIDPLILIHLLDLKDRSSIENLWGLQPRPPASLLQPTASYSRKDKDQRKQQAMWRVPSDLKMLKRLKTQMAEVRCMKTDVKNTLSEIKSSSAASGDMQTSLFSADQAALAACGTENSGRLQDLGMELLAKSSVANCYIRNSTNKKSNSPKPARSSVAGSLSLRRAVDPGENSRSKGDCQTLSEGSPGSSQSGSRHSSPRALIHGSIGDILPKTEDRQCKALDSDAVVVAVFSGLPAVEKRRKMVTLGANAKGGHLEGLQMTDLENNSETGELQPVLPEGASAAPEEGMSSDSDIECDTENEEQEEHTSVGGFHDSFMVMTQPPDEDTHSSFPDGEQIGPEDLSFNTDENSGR
UniProt Q8TAQ2: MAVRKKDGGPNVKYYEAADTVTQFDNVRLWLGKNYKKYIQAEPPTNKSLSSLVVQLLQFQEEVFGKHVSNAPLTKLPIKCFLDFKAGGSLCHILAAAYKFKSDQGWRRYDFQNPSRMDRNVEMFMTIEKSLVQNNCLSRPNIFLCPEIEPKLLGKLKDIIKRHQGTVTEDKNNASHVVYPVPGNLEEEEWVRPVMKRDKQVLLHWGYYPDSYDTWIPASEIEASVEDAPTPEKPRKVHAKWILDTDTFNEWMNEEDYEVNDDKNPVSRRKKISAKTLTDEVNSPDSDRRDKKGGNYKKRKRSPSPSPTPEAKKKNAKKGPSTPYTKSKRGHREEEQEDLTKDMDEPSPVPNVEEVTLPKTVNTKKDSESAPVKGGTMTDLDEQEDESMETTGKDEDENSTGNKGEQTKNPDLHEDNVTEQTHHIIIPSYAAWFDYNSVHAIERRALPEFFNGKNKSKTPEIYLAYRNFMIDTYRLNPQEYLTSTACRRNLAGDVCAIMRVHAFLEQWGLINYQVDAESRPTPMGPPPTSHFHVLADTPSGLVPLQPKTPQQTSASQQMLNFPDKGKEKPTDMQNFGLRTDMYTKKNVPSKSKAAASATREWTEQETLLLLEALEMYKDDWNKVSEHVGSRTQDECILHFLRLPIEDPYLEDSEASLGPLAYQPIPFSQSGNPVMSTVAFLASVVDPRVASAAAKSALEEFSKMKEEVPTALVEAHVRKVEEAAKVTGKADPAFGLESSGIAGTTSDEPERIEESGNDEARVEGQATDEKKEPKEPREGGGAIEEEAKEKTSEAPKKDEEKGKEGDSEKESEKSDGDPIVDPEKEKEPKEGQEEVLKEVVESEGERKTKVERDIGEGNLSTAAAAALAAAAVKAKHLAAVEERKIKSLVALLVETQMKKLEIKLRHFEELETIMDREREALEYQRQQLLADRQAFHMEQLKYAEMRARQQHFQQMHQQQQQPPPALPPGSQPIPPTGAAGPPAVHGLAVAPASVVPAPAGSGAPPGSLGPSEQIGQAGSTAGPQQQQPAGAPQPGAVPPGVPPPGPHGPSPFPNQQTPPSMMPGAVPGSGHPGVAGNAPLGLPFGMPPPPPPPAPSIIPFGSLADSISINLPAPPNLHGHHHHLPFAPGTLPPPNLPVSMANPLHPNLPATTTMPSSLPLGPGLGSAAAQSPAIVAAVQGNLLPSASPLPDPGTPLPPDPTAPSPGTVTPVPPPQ

binding: binds
Substance: SMARCC2 (from UniProt Q8TAQ2 1-1214)
